Laboratory results: the supplement of paper PMC8551327
Structures can show the parent of a compound that is named as a salt. Some of the results follow. Cut-off read from the data, not from the text of the source: active = 1.25 or more and inactive = the rest. Repeats are few or missing, and single values can be far off.

Tested on: Kcc2-LUC knock-in mouse primary cortical neurons (Kcc2 promoter reporter)
Assay: Kcc2 promoter-driven luciferase activity relative to vehicle control (fold of vehicle (ratio)); higher = stronger Kcc2 promoter activation (Kcc2 expression enhancer)
Settings: 100 nM; 48 h

COc1cc2c(cc1O)N=CC1CCC(O)N1C2=O (centres undefined) [Neothramycin A and neothramycin B]
Kcc2 promoter-driven luciferase activity: inactive: 0.86

C[C@H]1CCC/C=C/[C@@H]2C[C@H](O)C[C@H]2[C@H](O)/C=C/C(=O)O1 [Brefeldin A]
Kcc2 promoter-driven luciferase activity: inactive: 1.04

CCOC(=O)NC1=C(N2CC2)C(=O)C(NC(=O)OCC)=C(N2CC2)C1=O [Diaziquone]
Kcc2 promoter-driven luciferase activity: inactive: 0.88

CCC[CH2][Pb]([Cl])([CH2]CCC)[CH2]CCC [Tributyl(chloro)plumbane]
Kcc2 promoter-driven luciferase activity: inactive: 0.45

CC(Cl)[C@@]1(O)C[C@@H](C)[C@@](C)(O)C(=O)OCC2=CCN3CC[C@@H](OC1=O)[C@@H]23 (some centres undefined) [Jaconine Hydrochloride]
Kcc2 promoter-driven luciferase activity: inactive: 1.01

CO[C@H]1[C@@H](O)[C@@H](C)O[C@H](O[C@H]2[C@H](Oc3cccc4c(O)c5c(=O)oc6ccc(C)c7c(=O)oc(c34)c5c67)O[C@H](C)[C@H](O)[C@@H]2O)[C@@H]1O [Chartreusin]
Kcc2 promoter-driven luciferase activity: inactive: 0.73

CC1Oc2cc3c(-c4c(O)cc(O)c5c(O)c6c(cc45)OC(C)C(C)C6=O)c(O)cc(O)c3c(O)c2C(=O)C1C (centres undefined) [Chaetochromin]
Kcc2 promoter-driven luciferase activity: active: 1.35

CCCCC[C@@H](O)[C@H]1C(=O)O[C@H](C)[C@@H](O)/C=C/C=C/C=C/C=C/C=C(\C)[C@@H](O)[C@H](O)[C@H](O)C[C@H](O)C[C@H](O)C[C@H](O)C[C@H](O)C[C@@H]1O [Lagosin]
Kcc2 promoter-driven luciferase activity: inactive: 0.91

COc1cc([C@H]2c3cc4c(cc3C[C@@H]3COC(=O)[C@H]32)OCO4)cc(OC)c1OC [Deoxypodophyllotoxin; Anthricin]
Kcc2 promoter-driven luciferase activity: inactive: 0.92

COc1ccc(C(=O)O[C@H]2CC[C@@]3(C)[C@@H]4CC[C@H]5[C@]6(O)C[C@H](O)[C@@]7(O)[C@@H](CN8C[C@@H](C)CC[C@H]8[C@@]7(C)O)[C@]6(O)C[C@@]53O[C@]24O)cc1OC [Veratridine]
Kcc2 promoter-driven luciferase activity: active: 1.39

CC(=O)O[C@H]1C(=O)[C@@]2(C)[C@H]([C@H](OC(=O)c3ccccc3)[C@]3(O)C[C@H](O)C(C)=C1C3(C)C)[C@]1(OC(C)=O)CO[C@@H]1C[C@@H]2O
Kcc2 promoter-driven luciferase activity: active: 1.35

CC12CCC3C(CCC4CC(OC(=O)Cc5ccc(N(CCCl)CCCl)cc5)CCC43C)C1CCC(=O)N2 (centres undefined)
Kcc2 promoter-driven luciferase activity: inactive: 1

C[C@@H]1CCOC(=O)/C=C/C=C\C(=O)O[C@@H]2C[C@H]3O[C@@H]4[C@@H]5O[C@]5(C)[C@H](O)C[C@]4(COC(=O)[C@H]1O)[C@]2(C)[C@@]31CO1
Kcc2 promoter-driven luciferase activity: inactive: 0.99

CC[C@@]1(O)C[C@H](O[C@H]2C[C@H](N(C)C)[C@H](O)[C@H](C)O2)c2c(cc3c(c2O)C(=O)c2c(O)ccc(O)c2C3=O)[C@H]1C(=O)OC
Kcc2 promoter-driven luciferase activity: inactive: 0.9

Cc1cc[c]([Sb]2[O]C(CO)C(C(O)C(O)C(=O)O)[O]2)cc1.O.O (centres undefined)
Kcc2 promoter-driven luciferase activity: inactive: 0.52

CCC[CH2][Sn]([CH2]CCC)([CH2]CCC)[O]c1cc(Cl)c(Cl)cc1Cl [Tributyl(2,5-trichlorophenoxy)tin]
Kcc2 promoter-driven luciferase activity: inactive: 0.83

C=C1C(=O)O[C@@H]2[C@H]1CC[C@H](C)[C@]1(O)C=CC(=O)[C@@]21C [Parthenin]
Kcc2 promoter-driven luciferase activity: inactive: 1.07

CC(C)(O)/C=C/C(=O)[C@](C)(O)[C@H]1[C@H](O)C[C@@]2(C)[C@@H]3CC=C4[C@@H](C=C(O)C(=O)C4(C)C)[C@]3(C)C(=O)C[C@]12C [Cucurbitacin I]
Kcc2 promoter-driven luciferase activity: inactive: 0.99

CC1CC(C)(O)CC(C(O)CC2CC(=O)NC(=O)C2)C1=O (centres undefined) [Streptovitacin A]
Kcc2 promoter-driven luciferase activity: inactive: 0.262

C[C@@H]1CC[C@H]2[C@@H](C)C(=O)O[C@@H]3O[C@@]4(C)CC[C@@H]1[C@]32OO4 [Artemisinin]
Kcc2 promoter-driven luciferase activity: inactive: 1.17

NC(=O)OCc1c(O)c2c(c(O)c1COC(N)=O)C(=O)C=CC2=O
Kcc2 promoter-driven luciferase activity: inactive: 1

C[N+](C)(C)CC1CCCC1=O (centres undefined) [trimethyl-[(2-oxocyclopentyl)methyl]azanium;iodide]
Kcc2 promoter-driven luciferase activity: inactive: 1.17

C1CCNCC1.S=C(S)N1CCCCC1 [Piperidine pentamethylenedithiocarbamate]
Kcc2 promoter-driven luciferase activity: active: 1.47

C[C@@H]1C[C@H]2CC[C@H](O2)[C@H](C)C(=O)O[C@@H](C)C[C@@H]2CC[C@@H](O2)[C@@H](C)C(=O)O[C@H](C)C[C@H]2CC[C@@H](O2)[C@H](C)C(=O)O[C@@H](C)C[C@@H]2CC[C@@H](O2)[C@@H](C)C(=O)O1 [Nonactin]
Kcc2 promoter-driven luciferase activity: inactive: 0.5

CNC(=O)ON(C(C)=O)C(=O)NC [Caracemide]
Kcc2 promoter-driven luciferase activity: inactive: 1.11

CCCC/C=C/C=C/C=C/CCCCCCCC(=O)OCC(COC(=O)CCCCCCC/C=C/C1C=CC(CCCC)C(C(=O)O)C1C(=O)O)OC(=O)CCCCCCC/C=C/C=C/C=C/CCCC.OCCNCO (centres undefined)
Kcc2 promoter-driven luciferase activity: inactive: 1.14

CCN1C[C@]2(COC)CC[C@H](O)[C@@]34C5C[C@@H]6[C@@H](OC)C[C@](O)(C(CC23)C14)C5[C@H]6OC(C)=O (some centres undefined) [Condelphine]
Kcc2 promoter-driven luciferase activity: inactive: 1.17

NC(=O)c1cn(C2OC(CO)C(O)C2O)c2ncnc(N)c12 (centres undefined)
Kcc2 promoter-driven luciferase activity: inactive: 1

CC1=C[C@H](O)[C@@H](O)[C@]2(C)[C@H]3[C@@]4(O)OC[C@]35[C@H]([C@@H](C)[C@H]4O)[C@@H](O)C(=O)O[C@@H]5C[C@@H]12
Kcc2 promoter-driven luciferase activity: inactive: 0.8

O=P1(N(CCCl)CCCl)NCCCO1 (centres undefined) [Cyclophosphamide]
Kcc2 promoter-driven luciferase activity: inactive: 1.08

Fc1cccc(F)c1C1SCc2nc3ccccc3n21 (centres undefined) [Thiazolobenzimidazole]
Kcc2 promoter-driven luciferase activity: inactive: 0.8

[Cl][Hg][c]1ccc2ccccc2c1 [Chloro(naphthalen-2-yl)mercury]
Kcc2 promoter-driven luciferase activity: inactive: 1.08

NC(=O)c1cn(C2OC(CO)C(O)C2O)c2ncnc(N)c12 (centres undefined) [Sauzivamycin]
Kcc2 promoter-driven luciferase activity: inactive: 1.22

CC(O)CCC(=O)c1ccoc1 (centres undefined) [4-Ipomeanol]
Kcc2 promoter-driven luciferase activity: active: 2.37

CN1CCc2cc3c(cc2[C@H]1[C@@H]1OC(=O)c2c1ccc1c2OCO1)OCO3 [Bicuculline]
Kcc2 promoter-driven luciferase activity: inactive: 1.12

CC(=O)C(=O)NC1/C=C(C)\C=C/C(O)C/C=C(C)\C=C/C(O)CC2OC(=O)C1(C)C(=O)C2C (centres undefined) [Lankacidin C]
Kcc2 promoter-driven luciferase activity: inactive: 1.08

C=Cc1cc(OC)c2c(c1)c(=O)oc1c2cc(OC)c2c(O)ccc(C3OC(C)C(O)C(C)(O)C3O)c21 (centres undefined) [Chrysomycin A]
Kcc2 promoter-driven luciferase activity: inactive: 0.73

COC(=O)C1C(O)C(C)C(O)C(C)/C=C\C=C(C)C(=O)Nc2c(C)c(OC(C)=O)c3c(c2O)C(=O)C(C)=C2OCOC(=C23)C(C)=CC(C)(O)C(O)C(C)C1O (centres undefined)
Kcc2 promoter-driven luciferase activity: inactive: 0.99

CC[C@H](C)[C@@H]1NC(=O)[C@@H](NC(=O)c2c3nc4c(C(=O)N[C@@H]5C(=O)N[C@@H](C(C)C)C(=O)N6CCC[C@H]6C(=O)N(C)CC(=O)N(C)[C@@H](C(C)C)C(=O)O[C@@H]5C)ccc(C)c4oc-3c(C)c(=O)c2N)[C@@H](C)OC(=O)[C@H](C(C)C)N(C)C(=O)CN(C)C(=O)[C@@H]2CCCN2C1=O
Kcc2 promoter-driven luciferase activity: inactive: 1.01
